The other results are listed elsewhere or left out. Further columns of the screen follow, without active or inactive calls. The list favours compounds with an active or inconclusive main result. Words in brackets tell the shape of the fitted curve; partial curves, single points and poor fits give uncertain potencies.
Assay: qHTS Assay for Modulators of Lamin A Splicing
Settings: HeLa LMNA splicing GFP/RFP minigene ratio, 48 h
Summary of the method: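 S3 HeLa stable clones carrying a lamin A-EGFP splicing minigene plus DsRed2 were seeded at 600 cells/well in Opti-MEM with 2% FBS, pin-dosed and incubated 48 h at 37°C. Acumen cytometry (488 nm) gave the GFP/RFP total-intensity ratio.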

[1] = measured here: GFP splicing reporter channel
[2] = measured here: RFP viability control channel

Structure (SMILES) | AC50 [1] | AC50 [2]
CC(=O)c1cccc(NC(=O)Cc2coc3cc4c(cc23)CCC4)c1 | 14.1 µM [rising, single point] | 25.1 µM [rising, partial curve]
Cc1cc(NC(=O)/C=C/c2ccc(Br)cc2)no1 |  | 5.62 µM [rising, partial curve, poor fit]
CC1CCCN(CCCNC(=O)c2cc(Sc3ccc(F)cc3)nc3ccccc23)C1 (configuration not stated) | 35.5 µM [falling, single point] | 
COc1ccccc1OCc1ccc(C(=O)Nc2ccncc2)o1 |  | 22.4 µM [rising, partial curve, poor fit]
O=C(COC(=O)c1ccco1)NCc1ccccc1Cl |  | 0.562 µM [rising, partial curve, poor fit]
COc1cccc(-c2nnc(SCc3ccc(C#N)cc3)n2Cc2ccco2)c1 | 11.2 µM [rising, partial curve, poor fit] | 11.2 µM [rising, partial curve]
COc1ccc(-c2c(C#N)c(SCC(=O)c3cc4ccccc4oc3=O)nc(C)c2C(=O)Nc2ccccc2)cc1 |  | 7.08 µM [rising, partial curve]
CCn1c(SCC(=O)N2CCCC2)nc2ccccc21 |  | 5.62 µM [rising, partial curve]
Cc1ccc(Cl)cc1-c1ccc(C=Nc2ccc(N3CCOCC3)cc2)o1 |  | 15.8 µM [rising, single point]
O=C(Cc1ccccc1)Nc1ccccc1Oc1ccccc1 | 12.6 µM [rising, single point] | 
CNC(=O)CN(c1cc(OCCOC)c(Cl)cc1Cl)S(=O)(=O)c1ccccc1 | 14.1 µM [falling, single point] | 
N#Cc1c(-c2ccc(F)cc2)ccnc1N1CCOCC1 |  | 0.0251 µM [falling, full curve, poor fit]
Cc1ccccc1Cn1ccc(NC(=O)CCSc2nc(-c3ccco3)cc(C(F)(F)F)n2)n1 |  | 12.6 µM [rising, single point]
Cc1cc(=O)[nH]c(N/N=C/c2c(C)nn(-c3ccccc3Cl)c2Cl)n1 |  | 31.6 µM [rising, single point]
O=C(NC1CCCCCCC1)c1ccc2c(c1)N(Cc1ccc(F)cc1)C(=O)CS2=O (configuration not stated) | 15.8 µM [rising, single point] | 
Cc1ccc(N2CCN(C(=O)c3nn(C)c4c3CS(=O)(=O)c3ccccc3-4)CC2)c(C)c1 |  | 0.00355 µM [falling, full curve, poor fit]
CC[C@H]1OC(=O)[C@H](C)[C@@H](O[C@H]2C[C@@](C)(OC)[C@@H](O)[C@H](C)O2)C(C)[C@@H](O[C@@H]2O[C@H](C)C[C@H](N(C)C)[C@@H]2O)[C@](C)(OC)C[C@@H](C)C(=O)[C@H](C)[C@@H](O)[C@]1(C)O (some centres not stated) | 14.1 µM [rising, single point] | 
CCN(CC)S(=O)(=O)c1cccc(C(=O)Nc2cccc(C)c2)c1 |  | 28.2 µM [rising, single point]
COc1ccc(NC(=S)N(Cc2cccnc2)Cc2ccco2)cc1 | 2 µM [falling, partial curve, poor fit] | 

Quoted at random: 3 records from the list.
Structure (SMILES) | AC50 [1] | AC50 [2]
COc1cccc(-c2nnc(SCc3ccc(C#N)cc3)n2Cc2ccco2)c1 | 11.2 µM [rising, partial curve, poor fit] | 11.2 µM [rising, partial curve]
Cc1ccc(Cl)cc1-c1ccc(C=Nc2ccc(N3CCOCC3)cc2)o1 |  | 15.8 µM [rising, single point]
COc1ccc(-c2c(C#N)c(SCC(=O)c3cc4ccccc4oc3=O)nc(C)c2C(=O)Nc2ccccc2)cc1 |  | 7.08 µM [rising, partial curve]

(list continues)

Structure (SMILES) | AC50 [1] | AC50 [2]
O=C(CCc1ccccc1)Nc1ccc(Cl)cn1 |  | 8.91 µM [rising, partial curve, poor fit]
Cc1cccc(NC(=O)Cn2nc(-c3ccccc3)c3cnc4ccccc4c32)c1 | 12.6 µM [falling, partial curve] | 20 µM [falling, partial curve, poor fit]
CN(Cc1ccccc1)C(=O)c1nc2ccccn2c1CN1CCCC1c1nccs1 (configuration not stated) | 0.447 µM [falling, full curve, poor fit] | 
FC(F)(F)c1ccccc1-c1nccc(-n2ccnc2)n1 |  | 0.126 µM [falling, full curve, poor fit]
CCc1ccccc1NC(=O)N1CCOc2ccccc21 | 0.00316 µM [falling, full curve] | 
O=C(NCc1ccncc1)C(=O)NCC(c1ccco1)N1CCN(c2ccc(F)cc2)CC1 (configuration not stated) |  | 25.1 µM [rising, single point]
CN(C)S(=O)(=O)c1ccc(NCC2COc3ccccc3O2)c([N+](=O)[O-])c1 (configuration not stated) |  | 17.8 µM [rising, partial curve, poor fit]
CCCOc1ccc(C2C(=O)N(C3CCCCCC3)CC(=O)N2Cc2ccccc2OC)cc1OC (configuration not stated) | 35.5 µM [rising, single point] | 
COc1cc(NC(=O)CC2C(=O)N(c3ccccc3)C(=O)N2Cc2ccc(F)cc2)cc(OC)c1 (configuration not stated) |  | 0.0224 µM [falling, full curve, poor fit]
Cc1cccc(CNc2ccnc(-c3ccc(C(=O)N(C)C)cc3)n2)c1 | 12.6 µM [falling, partial curve] | 
COc1ccc(C(=O)C2CCCN(Cc3ccc4nonc4c3)C2)cc1OC (configuration not stated) | 0.0224 µM [falling, full curve, poor fit] | 0.02 µM [falling, full curve]
Cc1ccc(S(=O)(=O)Nc2ccccc2C(=O)Nc2nc(-c3ccc(F)cc3)cs2)cc1 |  | 0.562 µM [rising, partial curve]
COc1ccc(OC)c(NC(=O)Cn2cc(C#N)c3ccccc32)c1 | 35.5 µM [falling, single point] | 
COc1ccc(OCc2nc(C#N)c(N3CCN(c4ccc(OC)cc4)CC3)o2)cc1 |  | 22.4 µM [rising, single point]
O=C(Nc1cccc(S(=O)(=O)N2CCCCC2)c1)c1ccc2c(=O)n3c(nc2c1)CCCCC3 | 17.8 µM [rising, single point] | 11.2 µM [rising, partial curve]
COc1ccc(C(=O)/C=C/c2ccc(C)cc2)c(OC(=O)c2ccc([N+](=O)[O-])cc2)c1 |  | 4.47 µM [rising, full curve]
CC(C)c1nnc(NC(=O)c2c(O)c3cccc4c3n(c2=O)CCC4)s1 |  | 5.62 µM [rising, partial curve, poor fit]
CC(C)(C)C(=O)Nc1sc2c(c1C(=O)Nc1ccccn1)CCCC2 |  | 0.0562 µM [falling, full curve, poor fit]
